Measured values as given in patent US20220403022A1.
Positions count from the first letter of the chain named. Results are given in words; binding and its absence hold for the method and conditions named. Some entries that bind do so weakly or less than the wild type. Blank lines part the entries; values can stand above or below the binder they belong to.

Experiments:
[1] = molecular target: cynomolgus monkey TIGIT on primary T cells (cynomolgus monkey); assay: flow cytometry on primary CD3+ T cells
[2] = molecular target: His-tagged cynomolgus monkey TIGIT (cynomolgus monkey); assay: BIACORE affinity analysis

binding [1]: binds
B1: 3963H03-12 (antibody, human IgG1, kappa, V domains shown)
VH: QVQLVQSGSELKKPGASVKVSCKASGYTFTSYPMNWVRQAPGQGLEWMGWINTNTGNPTYAQGFTGRFVFSLDTSVSTAYLQISSLKAEDTAVYYCARVGGYSVDEYAFDVWGQGTLVTVSS
VL: DIQLTQSPSFLSASVGDRVTITCRASQGISSYLAWYQQKPGKAPKLLIYAASTLQSGVPSRFSGSGSGTEFTLTISSLQPEDFATYYCQQLSSYPTFGGGTKVEIKR

binding [2]: binds
B2: 7728B03 (antibody, V domains shown)
VH: B1 VH with V2M, V99T, A108S, V111I, L117T
VL: DIQLTQSPSFLSASVGDRVTITCRASQGISSYLAWYQQKPGKAPKLLIYAASTLQSGVPSRFSGSGSGTEFTLTISSLQPEDFATYYCHQTIFRPTFGGGTKVEIK

binding [2]: binds
B3: 7729G05 (antibody, V domains shown)
VH: B1 VH with Y102F, S103T, D105P, V111I, L117T
VL: B2 VL with Q3R, H89G, T91V, I92M, F93R, R94Y, T96A
